Laboratory results from PubChem BioAssay AID2685 (National Center for Advancing Translational Sciences (NCATS), 2010).
The list shows a part of the results. The main result of the screen is listed elsewhere. These columns were measured beside it and carry no call. Most of these compounds were active or inconclusive in the main read-out, so they are no random draw. Words in brackets tell the shape of the fitted curve; partial curves, single points and poor fits give uncertain potencies.

Assay: qHTS Assay for Lipid Storage Modulators in Drosophila S3 Cells;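 on cell number change: cells counted by Cell Tracker Red CMTPX staining in the red channel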
Conditions: BODIPY lipid droplet fluorescence, 18-24 h; for cell number change: measured here: cell count max response, cells fed with added oleic acid
How it was run: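 Laser-scanning cytometry quantifies lipid droplet accumulation (500–530 nm total intensity; droplet/cell object ratio) in oleic acid-fed (400 uM added) Drosophila S3 cells treated with a concentration series. 20 uM Triacsin C defined 100% inhibition.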

[1] = measured here: cell number channel AC50, cells fed with added oleic acid
[2] = measured here: lipid fluorescence (Fed channel) AC50, cells fed with added oleic acid

| Compound | cell number change [%] | AC50 [1] | AC50 [2] |
| --- | --- | --- | --- |
| CCOC(=O)c1cnc(-n2nc(C)cc2C)nc1NNc1nc(-c2ccccc2)cc(-c2ccccc2)n1 | -44.8 | 13 µM [falling, partial curve, poor fit] | 1.16 µM [falling, partial curve] |
| CC1CC(C)CN(CC(=O)Nc2cc(S(=O)(=O)N3CCOCC3)ccc2N2CCCC2)C1 (configuration not stated) | 0.313 | 6.51 µM [falling, single point] | 0.259 µM [falling, partial curve] |
| c1ccc(CN2CCN(c3nc4ccccc4c4ccccc34)CC2)cc1 | – | 1.16 µM [rising, full curve] | 18.4 µM [rising, partial curve] |
| CCN(CC)C(=O)C1CCN(S(=O)(=O)c2ccc3c(c2)CCCN3C(=O)C2CCC2)CC1 | -0.66 | – | 29.1 µM [rising, single point] |
| COCCCn1c(SCC(=O)N2CCOCC2)nc2ccccc2c1=O | -15 | – | 2.31 µM [falling, partial curve] |
| O=C1CC(C(=O)NCc2ccccc2)N=C(N2CCCCC2)N1 (configuration not stated) | -8.5 | – | 3.66 µM [falling, partial curve, poor fit] |
| COc1ccc(CC(=O)OCc2nnc(C3COc4ccccc4O3)o2)cc1OC (configuration not stated) | 20.4 | – | 13 µM [rising, partial curve] |
| O=C(OCC(=O)N1CCN(C(=O)c2ccco2)CC1)c1ccc(Cl)cc1 | -1.59 | 7.31 µM [falling, single point] | – |
| CC1CN(CC(O)COc2ccc(C(=O)c3ccccc3)cc2)CC(C)O1 (configuration not stated) | – | – | 0.651 µM [falling, full curve, poor fit] |
| OCCN(Cc1ccccc1)C(=S)NC1CCCCC1 | -14.3 | 0.517 µM [falling, full curve] | – |
| CCN(CCCCN1C(=O)c2ccccc2C1=O)c1ccc2c(c1)C(=O)N(C)C2=O | 5.58 | – | – |
| O=C(NC1CCCN(Cc2ccc(Cl)cc2)C1)c1cnc2ccccn2c1=O (configuration not stated) | – | – | 0.58 µM [rising, single point] |
| COc1ccc(S(=O)(=O)N2CCCCCC2)cc1NC(=O)Cc1ccccc1F | 10.9 | – | 0.00411 µM [rising, full curve, poor fit] |
| O=C(NCC1CCCN1S(=O)(=O)c1cccs1)C(=O)Nc1ccc(F)cc1F (configuration not stated) | 32.5 | 10.3 µM [rising, partial curve] | – |
| COC(=O)CCc1nc2c(C#N)c(-c3ccc(Cl)cc3)ccn2n1 | -19.6 | – | – |
| O=C(Nc1ccc(Cl)cc1)Nc1nnc(-c2ccncc2)s1 | 18.9 | – | 16.4 µM [falling, single point] |
| COc1ccc(OCc2nc(N)nc(Nc3ccc(C)cc3)n2)cc1 | -7.03 | – | 0.731 µM [falling, full curve, poor fit] |
| CC1CCN(c2ccc3nnc(CCC(=O)NC(C)C)n3n2)CC1 | – | – | 0.00517 µM [rising, full curve, poor fit] |
| COC(=O)/C(=C\Nc1cccc(Cl)c1C)c1ncc(C(F)(F)F)cc1Cl | – | – | 0.411 µM [rising, single point] |
| C/C=C/C(=O)OCC(=O)Nc1ccccc1Br | 36.1 | – | – |

Some values from the entries so far.
Under cell number change [%], `O=C(OCC(=O)N1CCN(C(=O)c2ccco2)CC1)c1ccc(Cl)cc1` reads -1.59
Under cell number change [%], `COc1ccc(S(=O)(=O)N2CCCCCC2)cc1NC(=O)Cc1ccccc1F` reads 10.9

Reformatted bar-delimited: 2 of the compounds above
Compound | cell number change [%] | AC50 [1] | AC50 [2]
O=C1CC(C(=O)NCc2ccccc2)N=C(N2CCCCC2)N1 (configuration not stated) | -8.5 | – | 3.66 µM [falling, partial curve, poor fit]
CC1CN(CC(O)COc2ccc(C(=O)c3ccccc3)cc2)CC(C)O1 (configuration not stated) | – | – | 0.651 µM [falling, full curve, poor fit]

Continuation:

| Compound | cell number change [%] | AC50 [1] | AC50 [2] |
| --- | --- | --- | --- |
| COc1cccc(N2CCN(c3nc(C)c(C)c(=O)[nH]3)CC2)c1 | -5.77 | – | 6.51 µM [falling, single point] |
| COC(=O)c1cc(NC(=O)c2ccc([N+](=O)[O-])cc2)c(=O)oc1C | -23 | – | 6.51 µM [falling, single point] |
| CCOC(=O)COc1ccc2c(C#N)c3ccccn3c2c1 | 53.1 | 23.1 µM [rising, partial curve, poor fit] | 23.1 µM [rising, partial curve, poor fit] |
| COc1ccccc1-c1cc(C(F)(F)F)c(C#N)c(=O)[nH]1 | -52.6 | – | – |
| CC1CCN(C2=C(NS(=O)(=O)c3ccc(Br)cc3)C(=O)c3ccccc3C2=O)CC1 | -7.46 | – | 0.517 µM [falling, partial curve, poor fit] |
| O=C(Nc1ccccc1)Nc1ccc(Oc2ncnc3cc(Cl)ccc23)nc1 | 5.81 | – | – |
| O=C1C(Cl)=C(NCC2CCCO2)C(=O)N1c1ccccc1 (configuration not stated) | -26.2 | – | 29.1 µM [falling, single point] |
| Cc1nn(-c2ccccn2)c2c1-c1nc(N)ncc1CC2 | 6.15 | – | – |
| COc1ccc(C=Nc2ccc3[nH]ncc3c2)c(O)c1 | -20.7 | – | 29.1 µM [falling, single point] |
| CCOc1cc(-c2noc(CCCC(N)=O)n2)cc(Br)c1OC | -1.1 | – | 6.51 µM [rising, single point] |
| O=C(Cn1c(=O)oc2cc(S(=O)(=O)N3CCCC3)ccc21)N1CCN(c2ccccc2)CC1 | -5.74 | – | 0.13 µM [rising, full curve, poor fit] |
| CCCn1c(SCC(=O)NCc2ccco2)nc2c1c(=O)n(C)c(=O)n2C | 99.7 | – | – |
| O=C(CNC(=O)c1ccccc1Br)NCCSc1ccc(Br)cc1 | -25 | 6.51 µM [rising, single point] | – |
| CCOC(=O)NNc1ccc2nonc2c1[N+](=O)[O-] | -40.5 | 29.1 µM [falling, single point] | 29.1 µM [falling, single point] |
| CCN1CCN(c2cc(C)c3cc(NC(=O)c4ccc(C)c(C)c4)ccc3n2)CC1 | – | – | 0.184 µM [rising, full curve, poor fit] |
| COc1ccc(NC(=O)Cc2nnc(SCC(=O)c3ccc(F)cc3)n2C)cc1 | 5.22 | – | 29.1 µM [falling, single point] |
| Cc1nn(C)c(C(=O)Nc2ccn(C34CC5CC(CC(C5)C3)C4)n2)c1[N+](=O)[O-] | -19.7 | 0.0517 µM [falling, full curve, poor fit] | 2.06 µM [falling, full curve, poor fit] |
| O=C(Nc1cc(S(=O)(=O)N2CCOCC2)ccc1N1CCOCC1)c1cccs1 | -43.7 | 29.1 µM [falling, single point] | – |
| Cc1nc2ccccn2c1C(=O)NCc1ccc2c(c1)OCO2 | -2.54 | 0.731 µM [rising, full curve, poor fit] | 1.3 µM [rising, partial curve] |
